Primary screen of a compound library

Mtb growth Cornell: 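Whole-cell assay for inhibitors of Mycobacterium tuberculosis growth, labelled Cornell in the record; the read-out is not stated. The concentration is filed as 10 mM, unlikely as a test dose, so the dose is not known. Higher means stronger inhibition (inferred from two other growth screens of the library). About 53,000 compounds were tested under these conditions; 1.7% (about 900) showed 50% or more at least once.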
Mtb heat-shock: 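Assay on Mycobacterium tuberculosis, filed only as a heat shock assay from Cornell; the read-out is not stated. The concentration is filed as 10 mM, unlikely as a test dose, so the dose is not known. Direction is inferred from retests: higher values go with stronger inhibition. Size under these conditions: about 69,000 compounds, about 930 of them at 50% or above in at least one test.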

The filed quantity is “Percent Effect” (%). How 0% and 100% were set is not recorded. Most values in the screen are low, and negative values occur. Compounds were drawn at random from those tested, without regard to their results. A dash means the value is not listed here; it may have been measured.

Compound	Mtb growth Cornell	Mtb heat-shock
COc1ccc(Oc2ncccc2C(N)=O)cc1CN1CCCC1	6.425%	12.21%
COc1cc(C(=O)NCCCc2ccccc2)on1	32.93%	33.34%
COc1ncc(NCc2ccsc2)cc1C(N)=O	-26.11%	-17.59%
COCc1nn(C)c2c1CCN(Cc1cnn(C)c1)C2.O=C(O)C(F)(F)F	-	-3.679%
COc1ccccc1-n1cc(C(=O)NCCCn2ccnn2)cn1	12.7%	-5.625%
CCS(=O)(=O)N1CCC2(CCN(Cc3ccc(C)o3)C2)C1 (stereo not drawn)	-13.03%	-11.17%
CC1(NC(=O)CNC(=O)C(C)(C)C)CCc2ccccc2C1 (stereo not drawn)	-	-5.839%
CCN(Cc1ccoc1)C(=O)Nc1ccccc1CN1CCOCC1	-	-18.24%
Nc1cc2c(nn1)CCN(C(=O)c1cccc3c1OCO3)C2	-	-0.3184%
O=C1CCC(=O)c2oc3ccc(Br)cc3c2N1	17.5%	-18.78%
[H][C@@]12CCN(Cc3ccccc3)C[C@]1([H])CCN(C1CCCCC1)C(=O)C2	-	-28.41%
Cc1cc(C(F)(F)F)nn1C(C)C(=O)NN1CCN(C)CC1 (stereo not drawn)	-	-16.02%
N#Cc1ccc(CS(=O)(=O)NC(=O)c2ccc3c(c2)COC3)cc1	30.24%	9.35%
[H][C@@]12COC[C@]1(COc1ccc(C#N)cn1)CN(Cc1cccc(C)n1)C2	24.29%	-38.58%
O=C(O)C(F)(F)F.O=C(O)C(F)(F)F.[H][C@@]12CCN(Cc3cccc(C)n3)[C@@]1([H])CCN2C(=O)Cc1ccsc1	10.15%	-13.99%
Cc1cc(C)cc(CN2CCN(C(=O)CCc3n[nH]c(C)n3)CC2=O)c1	-36%	-15.43%
CN(Cc1cccs1)C(=O)Cn1cc(NC(=O)C(C)(C)C)cn1	-	-16.72%
CCN1CC(C(=O)NCc2noc(Cc3ccccc3)n2)CCC1=O (stereo not drawn)	2.056%	-0.1784%
CCn1c2c(ccc1=O)CC(N)CC2 (stereo not drawn)	-	-10.49%
CN(Cc1cccnc1)C1CC2(CCN(C(=O)c3cscn3)CC2)C1	2.956%	-13.07%
Cc1noc(C)c1CCCNC(=O)C1CCN(C(C)C)CC1	13.2%	14.28%
COc1ccsc1C(=O)Nc1cc(Br)c(=O)n(C)c1	22.31%	-1.078%
CCc1oc(C(=O)N2CCC(N(CC)C(C)=O)C2)cc1CN(CC)CC (stereo not drawn)	-	-2.139%
CC(C)c1noc(CN2CCOCC2C)n1 (stereo not drawn)	-84.08%	5.996%
O=C(NCCc1csc(-c2cccnc2)n1)c1cnn2c1CCCC2	-3.716%	-12.45%
Cc1nc2c(c(NCc3ccccc3)n1)CCN(C(=O)C1CCC1)CC2	6.751%	0.969%
Cc1ccccc1-n1nccc1NC(=O)CCOC(C)C	31.86%	15.46%
COc1cccc(CC(C)NC(=O)NCCc2cccnc2)c1 (stereo not drawn)	-7.494%	-32.12%
O=C(O)C(F)(F)F.O=C(O)C(F)(F)F.c1cncc(CN2CCc3c(nnn3CC3CC3)C2COCC2CC2)c1 (stereo not drawn)	25.61%	-13.79%
CCOCCOc1ccccc1C(=O)N1CCCC(c2ncc[nH]2)C1 (stereo not drawn)	9.462%	3.452%
CCc1nccn1-c1cncc(C2CCCN2)n1.Cl (stereo not drawn)	12.34%	-3.247%
CCCc1noc(CCC(=O)N2CCCC2c2cccs2)n1 (stereo not drawn)	-	5.849%
Cc1ccc(C)c(CC(=O)Nc2cnccc2SCCCO)c1	-26.03%	-13.07%
CNC(=O)c1n[nH]c2c1C(c1cccc3c1OC(C)(C)C3)CC(=O)N2 (stereo not drawn)	-17.1%	0.5914%
COC(=O)C1=NOC(Cc2cc(OC)c3c(c2)OCO3)C1 (stereo not drawn)	104.6%	-6.935%
Cc1ccc(OCC(O)CN2CCc3c(ncn3C3CC3)C2)cc1 (stereo not drawn)	14.04%	-11.18%
Cc1cc(C2CCCN2C(=O)Nc2cn[nH]c2)on1 (stereo not drawn)	1.11%	20.85%
[H][C@@]12CS(=O)(=O)C[C@]1([H])N(C(=O)c1cc3ccccc3cn1)CCN2CCC	-	1.02%
CC(CN1CCOCC1)OC(=O)c1ccccc1I.Cl (stereo not drawn)	19.03%	-19.16%
O=C(O)[C@@H]1CN(Cc2ccc(-c3cc[nH]n3)s2)C[C@H]1C1CC1	6.452%	-5.049%
COC(=O)CC1CN(Cc2c(Cl)ccc3cccnc23)CCO1 (stereo not drawn)	32.6%	-24.7%
CCCc1cc(=O)[nH]c(SCc2ccccn2)n1	-4.123%	69.86%
CN(CC(=O)NC(C)(C)C)C(=O)c1cccn1CCc1ccccc1	-	-17.67%
[H][C@@]12CCN(Cc3cc(C)on3)C[C@@]1([H])O[C@@H](c1nc(C3CC3)cs1)C2	6.823%	19.98%
Cc1ccc(C2(O)CCN(C(=O)Cn3cc(C)c(=O)[nH]c3=O)CC2)nc1	8.266%	8.753%
Cc1cnn(CC(C)Nc2cnc3ccccc3n2)c1 (stereo not drawn)	-	-10.79%
Cc1nc(CN2CCOCC3(CCN(c4cnccn4)CC3)C2)cs1.O=C(O)C(F)(F)F	18.7%	-3.315%
CC(O)CN(C)S(=O)(=O)c1ccc(C#N)cc1F (stereo not drawn)	-	9.275%
CCOc1ccc(-c2ccnc(CC)n2)cc1C(=O)O	-	1.298%
O=C(O)C(F)(F)F.[H][C@@]12CCN(Cc3ccoc3)C[C@@]1([H])O[C@H](C(=O)NC1CCCC1)C2	-0.7815%	13%
CCC(NS(C)(=O)=O)c1ccccc1OC (stereo not drawn)	16.79%	-12.79%
CC(C)c1nc(CN(C)C(=O)CNC(N)=O)cs1	-11.75%	11.9%
O=C(O)C(F)(F)F.[H][C@@]12CCCO[C@]1([H])[C@H](NC(=O)c1cnccn1)CN(CCOC)C2	27.78%	8.93%
CC(C(=O)Nc1ccc(N2CCOCC2)nc1)n1cncn1 (stereo not drawn)	-34.64%	-11.29%
[H][C@@]12CCN(C(=O)c3ccccc3)C[C@@]1([H])O[C@H](c1nccs1)C2	10.97%	-43.53%
Cc1ccc(C(=O)N2CC(Oc3ccccc3C)C2)s1	67.58%	42.66%
O=C(O)C(F)(F)F.[H][C@@]12CCN(Cc3nccs3)C[C@@]1([H])O[C@H](C(=O)N1CCC(C)CC1)C2	3.02%	11.99%
Cc1ccc(N2CCC3(CC2)CNC(=O)CO3)nn1.O=C(O)C(F)(F)F	24.4%	-15.23%
COCCN(Cc1ccc(OC)nc1)Cc1cccs1	-58.69%	-13.07%
COc1ccnc(NC(Cc2ccccc2)C(=O)N(C)C)n1 (stereo not drawn)	-33.14%	-20.06%
CC(C)C(=O)N1CCC(Cc2nccnc2Nc2ccccn2)CC1	-4.664%	28.97%

Once more, the final 5:

Compound	Mtb growth Cornell	Mtb heat-shock
O=C(O)C(F)(F)F.[H][C@@]12CCN(Cc3nccs3)C[C@@]1([H])O[C@H](C(=O)N1CCC(C)CC1)C2	3.02%	11.99%
Cc1ccc(N2CCC3(CC2)CNC(=O)CO3)nn1.O=C(O)C(F)(F)F	24.4%	-15.23%
COCCN(Cc1ccc(OC)nc1)Cc1cccs1	-58.69%	-13.07%
COc1ccnc(NC(Cc2ccccc2)C(=O)N(C)C)n1 (stereo not drawn)	-33.14%	-20.06%
CC(C)C(=O)N1CCC(Cc2nccnc2Nc2ccccn2)CC1	-4.664%	28.97%

Measurements from “University of Dundee, Small-Polar-MMV Screening Library” (2021), ChEMBL document CHEMBL3988442.